No constants are given. Whether binding was seen depends on the method and setting. For some assays here: Binding seen in cells or lysates may run through a third protein. Some binding calls cover weakened binding; strength is not graded here.
Columns and labels:
[1] = target: GST-PABPC1 (mouse PABPC1, wild type) (mouse) (UniProt P29341); assay: pull-down; equimolar purified proteins mixed with or without RNase A in 1X PBS, 3 hr at 4°C; complexes isolated on Glutathione-Magnetic beads (2 hr, 4°C), SDS-PAGE, Coomassie stain; both purified
[2] = target: FLAG-PABPC1 (cytosolic poly(A)-binding protein 1, wild type) (mouse) (UniProt P29341); assay: co-IP; C2C12 cells infected with adenovirus for 4 days; 1-5 mg lysate on anti-Flag magnetic beads, 4°C, 6 hr; blot with anti-eIF4G1 antibody

The chains behind the UniProt entries cited, without tags or fusion partners. Where a name states a change or a piece, a line headed by the entry shows the natural chain unless it says otherwise.
UniProt P29341: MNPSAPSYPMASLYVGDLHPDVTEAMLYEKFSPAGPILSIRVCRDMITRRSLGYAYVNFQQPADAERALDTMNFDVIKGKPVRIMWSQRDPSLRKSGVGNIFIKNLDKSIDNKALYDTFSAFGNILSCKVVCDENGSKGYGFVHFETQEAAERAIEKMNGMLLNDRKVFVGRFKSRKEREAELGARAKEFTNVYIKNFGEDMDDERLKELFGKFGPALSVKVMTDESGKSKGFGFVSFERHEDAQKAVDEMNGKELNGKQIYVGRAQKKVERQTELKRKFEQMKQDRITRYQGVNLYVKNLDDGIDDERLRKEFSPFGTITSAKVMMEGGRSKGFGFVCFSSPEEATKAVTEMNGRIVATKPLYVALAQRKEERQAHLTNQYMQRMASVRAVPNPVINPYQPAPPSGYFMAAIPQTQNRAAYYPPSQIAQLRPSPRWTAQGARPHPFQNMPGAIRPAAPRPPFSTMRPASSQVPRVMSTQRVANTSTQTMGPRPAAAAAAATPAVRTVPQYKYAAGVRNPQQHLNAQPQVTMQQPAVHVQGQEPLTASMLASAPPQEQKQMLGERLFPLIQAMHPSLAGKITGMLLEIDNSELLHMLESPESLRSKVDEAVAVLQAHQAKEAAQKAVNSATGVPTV
UniProt Q6NZJ6: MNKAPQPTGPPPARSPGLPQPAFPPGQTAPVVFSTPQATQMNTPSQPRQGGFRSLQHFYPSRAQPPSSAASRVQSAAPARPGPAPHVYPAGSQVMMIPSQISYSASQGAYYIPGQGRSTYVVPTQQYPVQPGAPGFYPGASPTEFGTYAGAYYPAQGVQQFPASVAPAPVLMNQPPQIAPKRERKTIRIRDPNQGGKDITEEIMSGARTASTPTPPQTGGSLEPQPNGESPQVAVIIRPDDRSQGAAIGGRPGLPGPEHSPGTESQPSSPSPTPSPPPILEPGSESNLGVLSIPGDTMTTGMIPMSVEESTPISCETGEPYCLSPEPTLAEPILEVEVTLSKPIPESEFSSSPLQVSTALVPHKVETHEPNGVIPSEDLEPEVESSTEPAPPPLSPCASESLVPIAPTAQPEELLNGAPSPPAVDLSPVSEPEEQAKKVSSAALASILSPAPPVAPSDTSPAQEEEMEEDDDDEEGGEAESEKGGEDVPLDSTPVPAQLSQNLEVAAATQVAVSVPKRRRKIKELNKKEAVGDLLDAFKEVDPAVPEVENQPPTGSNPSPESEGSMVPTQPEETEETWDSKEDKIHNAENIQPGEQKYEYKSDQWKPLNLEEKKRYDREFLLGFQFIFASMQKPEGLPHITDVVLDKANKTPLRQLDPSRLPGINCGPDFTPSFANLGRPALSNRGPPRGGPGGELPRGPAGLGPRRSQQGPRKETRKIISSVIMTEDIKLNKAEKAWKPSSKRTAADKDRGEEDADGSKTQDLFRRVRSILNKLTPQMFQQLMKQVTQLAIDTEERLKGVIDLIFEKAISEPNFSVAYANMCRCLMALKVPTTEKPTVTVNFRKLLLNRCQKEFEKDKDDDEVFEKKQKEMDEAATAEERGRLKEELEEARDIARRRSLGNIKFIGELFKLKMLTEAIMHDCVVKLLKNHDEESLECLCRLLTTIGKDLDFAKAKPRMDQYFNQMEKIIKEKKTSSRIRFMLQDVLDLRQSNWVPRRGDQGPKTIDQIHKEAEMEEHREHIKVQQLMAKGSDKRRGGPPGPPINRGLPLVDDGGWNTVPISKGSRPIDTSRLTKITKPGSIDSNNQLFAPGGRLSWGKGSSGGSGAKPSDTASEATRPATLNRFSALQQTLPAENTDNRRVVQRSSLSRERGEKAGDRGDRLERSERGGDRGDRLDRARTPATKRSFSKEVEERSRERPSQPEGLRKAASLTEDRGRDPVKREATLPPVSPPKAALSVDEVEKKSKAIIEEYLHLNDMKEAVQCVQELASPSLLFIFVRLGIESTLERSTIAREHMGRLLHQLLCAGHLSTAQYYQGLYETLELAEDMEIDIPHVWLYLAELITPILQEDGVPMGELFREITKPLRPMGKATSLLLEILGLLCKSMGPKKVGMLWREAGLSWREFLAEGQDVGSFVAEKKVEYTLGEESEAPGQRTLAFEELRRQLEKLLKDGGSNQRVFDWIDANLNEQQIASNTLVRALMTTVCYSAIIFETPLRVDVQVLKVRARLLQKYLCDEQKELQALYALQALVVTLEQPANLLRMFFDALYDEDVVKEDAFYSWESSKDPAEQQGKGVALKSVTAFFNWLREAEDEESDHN

Row | binding [1] | binding [2] | Substance
1 | binds | – | His-eIF4GI_((161-225 a.a)) (PABPC1-binding domain of eIF4G1) (from UniProt Q6NZJ6 161-225) (domain or fragment)
2 | – | binds | eIF4G1 (endogenous) (from UniProt Q6NZJ6 1-1600)

— paper PMC5487213
